# Experimental data taken from PubChem BioAssay AID1671190 (National Center for Advancing Translational Sciences (NCATS), 2021).
# Sequences of proteins named here, by UniProt entry; tags and fusion partners are left off.
# UniProt P18054, whole entry, looked up: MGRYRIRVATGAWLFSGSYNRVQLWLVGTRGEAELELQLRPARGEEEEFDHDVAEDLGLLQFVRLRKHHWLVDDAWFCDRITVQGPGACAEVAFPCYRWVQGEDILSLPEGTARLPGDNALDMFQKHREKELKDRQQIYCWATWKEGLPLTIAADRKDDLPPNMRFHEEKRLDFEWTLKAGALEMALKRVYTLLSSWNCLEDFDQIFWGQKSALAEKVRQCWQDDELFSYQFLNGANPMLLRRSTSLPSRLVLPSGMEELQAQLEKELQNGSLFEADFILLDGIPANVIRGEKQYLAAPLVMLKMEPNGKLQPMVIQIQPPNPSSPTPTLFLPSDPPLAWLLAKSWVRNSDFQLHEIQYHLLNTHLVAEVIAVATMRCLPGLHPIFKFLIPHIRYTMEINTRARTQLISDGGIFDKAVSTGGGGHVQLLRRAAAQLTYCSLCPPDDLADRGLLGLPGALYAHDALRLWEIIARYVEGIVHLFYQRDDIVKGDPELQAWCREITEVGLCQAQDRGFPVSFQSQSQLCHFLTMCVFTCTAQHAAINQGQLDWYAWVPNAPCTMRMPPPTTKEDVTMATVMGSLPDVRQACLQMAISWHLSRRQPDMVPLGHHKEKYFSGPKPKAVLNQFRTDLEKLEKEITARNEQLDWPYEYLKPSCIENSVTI
# In all, about 580,000 compounds went through this assay and about 6,100 (1.1%) were called active. The shares of active, inactive and inconclusive entries below differ from those in the screen. The call rests on the fitted dose curve; in most records, active means well fitted inhibition curve with a large enough effect; inconclusive means small, poorly fitted or top-dose-only effect, or another doubt; inactive means no such curve, though single readings can be large or run the other way. Potencies beside an inconclusive call are fits to weak or partial responses and may not hold up.
# Target: Polyunsaturated fatty acid lipoxygenase ALOX12 (Homo sapiens) (UniProt P18054)
# Assay: Primary qHTS assay for inhibitors of human arachidonate 12S-lipoxygenase (ALOX12): Round 2
# Settings: purified 12hLO, xylenol orange hydroperoxide absorbance; activity change, negative = inhibition: at 108 µM (top of the series) unless noted
# Procedure, shortened: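 Purified human 12hLO (150 nM final) in 25 mM Hepes, 0.01% Triton X-100, pH 7.0 was preincubated 15 min at room temperature with compound. Then 40 uM arachidonic acid was added, 30 min. Hydroperoxide was read by Fe-XO absorbance ratio 573/405 nm.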
# On the % scale 0 is the no-effect control and ±100 the full control effect; potency means the concentration at half of the fitted maximal effect.
SMILES,Potency,"activity change, negative = inhibition"
O=C(O)CN1C(=O)C(=O)N(Cc2cccc(F)c2)C1=O,"inconclusive: 44.7 µM [inhibitor, partial curve, poor fit]",–
CCOCCCNCc1ccc(C)cc1,"inconclusive: 0.631 µM [inhibitor, full curve, poor fit]",–
CN(C)c1ccc(C(=O)NNC(=O)c2ccc(Cl)cc2)cc1,–,inactive: -6.26%
CCOC(=O)C1=C2c3cc(OC)c(OC)cc3CC(C)(C)N2C(=O)C1=O,"inconclusive: 14.1 µM [inhibitor, full curve, poor fit]",–
CCC(C)c1ccc(NC(=S)NCCn2cc(Br)cn2)cc1 (stereo not drawn),"inconclusive: 35.5 µM [inhibitor, partial curve, poor fit]",–
CCS(=O)(=O)N1CC(=O)N(c2cccc(C)c2C)C(C)(C(=O)NC2CCCCCC2)C1 (stereo not drawn),–,inconclusive: -34.9% [inhibitor]
Cc1ccc(C)c(N2CCN(C(=O)Cc3cn(C)c4ccccc34)CC2)c1,"inconclusive: 0.794 µM [inhibitor, full curve, poor fit]",–
CCCCC(=O)NC(=S)NNC(=O)CCc1ccccc1,–,inactive: -24.7%
COC(=O)C1=NN(C(=O)c2cccc(Br)c2)C(O)(c2ccc(Cl)cc2)C1 (stereo not drawn),"inconclusive: 35.5 µM [inhibitor, partial curve]",–
COCCn1c(=S)[nH]c2cc(C(=O)N3CCc4ccccc4C3)ccc2c1=O,"inconclusive: 2.24 µM [inhibitor, full curve, poor fit]",–
COc1cccc(CC(=O)NC(c2ccccc2)c2ccccc2)c1,–,inactive: -29.7%
O=C(Nc1ccc(Br)cc1Cl)C12CC3CC(CC(C3)C1)C2,"inconclusive: 158 µM [inhibitor, partial curve, poor fit]",–
CCCC(=O)n1ccn(S(=O)(=O)c2ccc(C)cc2)c1=O,"inconclusive: 6.31 µM [inhibitor, full curve, poor fit]",–
Cc1nc(C2CCCN(C(=O)CCCN)C2)cc(N2CCOCC2)n1 (stereo not drawn),"inconclusive: 8.91 µM [inhibitor, full curve, poor fit]",–
C=C(C)Cn1c(SCc2ccc3ccccc3c2)nc2c1c(=O)[nH]c(=O)n2C,–,inactive: 13.3%
CC(NC(=O)CSc1nc2ccccc2o1)c1ccccc1 (stereo not drawn),–,inactive: 37.4%
COc1ccc(NC(=O)COc2cccc(-n3cnnn3)c2)cc1,"inconclusive: 158 µM [inhibitor, partial curve, poor fit]",–
NC(=O)[C@H]1CC2(CC(c3cccc(NC(=O)COc4ccc(Cl)cc4)c3)=NO2)CN1C(=O)c1ccc(Cl)cc1 (stereo partly drawn),"inconclusive: 31.6 µM [inhibitor, partial curve, poor fit]",–
O=C(NC(=S)Nc1ccc(S(=O)(=O)Nc2nccs2)cc1)c1ccccc1,"inconclusive: 44.7 µM [inhibitor, partial curve]",–
Cc1onc(-c2ccccc2Cl)c1C(=O)N1CCN(C)CC1,–,inactive: 19.7%
CC(=O)Nc1ccc(S(=O)(=O)NC(c2ccc(F)cc2)c2cccs2)cc1 (stereo not drawn),"inconclusive: 112 µM [inhibitor, single point]",–
COc1cc(C(=O)OCC2CC(c3ccccc3)=NO2)cc(OC)c1OC (stereo not drawn),–,inactive: -19%

SMILES,Potency,"activity change, negative = inhibition"
CC(C)Sc1ccc(Cl)nn1,–,inactive: -17.7%
Cc1ccc2c(CN3CCN(Cc4ccc5c(c4)OCO5)CC3)cc(=O)oc2c1C,–,inactive: -37.8%
Cc1ccc(-c2csc(N3CCN(c4cc5c(cc4Cl)nc(-c4ccncc4)n5CCN4CCCCC4)CC3)n2)cc1,"inconclusive: 44.7 µM [inhibitor, partial curve, poor fit]",–
COCCn1c(=O)[nH]c2cc(C(=O)NC3CCCCCC3)ccc2c1=O,"inconclusive: 100 µM [inhibitor, single point]",–
Cc1ccc(-n2c(N)c(C(=O)N3CCCCC3)sc2=S)cc1,–,inactive: -19.2%
Cc1ccccc1SCC(=O)Nc1ccc(N2CCOCC2)cc1,"inconclusive: 79.4 µM [inhibitor, single point]",–
CCNc1ccc2noc3c2c1C(=O)c1ccccc1-3,–,inactive: -6.72%
COc1ccc(C)cc1NC(=O)CN1CCCN(S(=O)(=O)c2ccc(Br)cc2)CC1,inactive,–
FC(F)(F)Oc1ccc(NC(=S)NCc2ccccc2)cc1,"inconclusive: 50.1 µM [inhibitor, partial curve, poor fit]",–
Cc1ccc(C2(O)CCN(C(=O)CCC3NC(=O)NC3=O)CC2)nc1 (stereo not drawn),"inconclusive: 56.2 µM [inhibitor, partial curve, poor fit]",–
CC(NS(=O)(=O)c1ccc2c(c1)CC(=O)N2C)c1ccccc1 (stereo not drawn),"inconclusive: 35.5 µM [inhibitor, partial curve, poor fit]",–
CCCCCCCC/C=N/NC(=O)c1ccc(C(C)(C)C)cc1,–,inactive: 55.3%
COc1ccc(N2CCN(C(=O)c3cn(C4CCCCC4)c(=O)c4c3c3ccccc3n4C)CC2)cc1,–,inactive: 5.35%
CCCc1nnc(NC(=O)C(=O)NCCN(CC)CC)s1,"inconclusive: 0.158 µM [inhibitor, full curve, poor fit]",–
Cc1cnc(C(=O)Nc2nccs2)cn1,"inconclusive: 0.562 µM [inhibitor, partial curve, poor fit]",–
O=C(NC1CCCCC1)c1ccc(Cl)nc1,"inconclusive: 0.199 µM [inhibitor, full curve, poor fit]",–
Cc1ccccc1CN1CCN(c2nc3c(c(=O)[nH]c(=O)n3C)n2C/C=C/c2ccccc2)CC1,–,inactive: 14.8%
CC(OC(=O)c1cccc(S(=O)(=O)N2CCCCC2)c1)C(=O)NC1CCCCC1C (stereo not drawn),"inconclusive: 0.251 µM [inhibitor, full curve, poor fit]",–
CCOC(=O)C1=CCC(C(C)(C)C)N(S(=O)(=O)c2ccc(C)cc2)C1 (stereo not drawn),"inconclusive: 44.7 µM [inhibitor, partial curve, poor fit]",–
COP(=O)(OC)c1nc(Cc2ccc(Cl)cc2)oc1NCc1ccco1,"inconclusive: 44.7 µM [inhibitor, partial curve, poor fit]",–
C[C@@]12C(=O)Nc3ccc(Br)cc3C(=O)N1[C@H]1c3cc(Br)ccc3OC[C@@H]1[C@@H]2c1ccccc1,"inconclusive: 31.6 µM [inhibitor, partial curve, poor fit]",–

# Some values from above:
# Potency with C[C@@]12C(=O)Nc3ccc(Br)cc3C(=O)N1[C@H]1c3cc(Br)ccc3OC[C@@H]1[C@@H]2c1ccccc1 reads inconclusive: 31.6 µM [inhibitor, partial curve, poor fit]
# activity change, negative = inhibition with CC(C)Sc1ccc(Cl)nn1 reads inactive: -17.7%
# Potency with Cc1cnc(C(=O)Nc2nccs2)cn1 reads inconclusive: 0.562 µM [inhibitor, partial curve, poor fit]
